{
  "source": "patent US6818235B2",
  "about": "“Beneficial control of energy balance in periparturient cattle” (Church & Dwight Co., Inc., priority 2001, dated 2004)",
  "tested_on": "Holstein cows",
  "assay": "Milk production and composition of postpartum cows fed CLA amide supplements",
  "format": "in vivo",
  "settings": "startup milk, first 24 hours postpartum",
  "excerpt": "One hundred and twenty Holstein cows who were to begin their second or greater lactation are randomly selected to receive one of four Conjugated Linoleic Acid (CLA) supplementation regimens. Control cows receive no supplemental CLA (0 CLA), cows offered Treatment 1 receive the cis-9, trans-11 CLA isomer (9, 11 CLA), cows offered Treatment 2 receive the trans-10, cis-12 CLA isomer (10, 12 CLA) and cows offered Treatment 3 receive both isomers in a 50:50 mix (mixed CLA).\nIsomers of CLA are obtained at 85% purity and are converted to their amide form (unsubstituted) for a rumen bypass rate of 65%. The remaining 15% of the 85% pure CLA isomers are the other isomers of CLA. Treatments 1 and 2 are formulated to deliver 7 grams of each CLA isomer per cow/day at the intestinal level. Therefore, 13 g/cow/day of the respective CLA amides are included in the daily rations offered as Total Mixed Rations (TMR) (i.e., 13 g CLA amide×85% purity×65% rumen bypass=7.18 g intestinal CLA isomer). […]\nOther measurements include: Start-up milk production (defined as colostrum milk secreted in the first 24 hours postpartum) analyzed for milk fat and fatty acid composition; Daily milk production and composition (total fat and protein); Daily dry matter intake (DMI); Calculated net energy balance defined as net energy intake minus net energy secreted in milk expressed in megacalories (Mcal) per day.",
  "note": "At least one structure is not confirmed: it was looked up by name or label, or the drawing left a doubt.",
  "data": [
    {"smiles": "CCCCCC/C=C/C=C\\CCCCCCCC(=O)O", "note": "[9, 11 CLA, cis-9, trans-11 conjugated linoleic acid]", "values": [
      {"measurement": "SCFA + MCFA:LCFA (ratio of short plus medium chain to long chain fatty acids in milk fat)", "value": "28:72.b"}
    ]},
    {"smiles": "CCCCC/C=C\\C=C\\CCCCCCCCC(=O)O", "note": "[10, 12 CLA, trans-10, cis-12 conjugated linoleic acid]", "values": [
      {"measurement": "SCFA + MCFA:LCFA (ratio of short plus medium chain to long chain fatty acids in milk fat)", "value": "12:88a"}
    ]}
  ]
}
